The supplement of paper PMC10849652
The list shows a part of the results.

The chains behind the UniProt entries cited, without tags or fusion partners. Where a name states a change or a piece, a line headed by the entry shows the natural chain unless it says otherwise.
UniProt P63165, whole entry, looked up: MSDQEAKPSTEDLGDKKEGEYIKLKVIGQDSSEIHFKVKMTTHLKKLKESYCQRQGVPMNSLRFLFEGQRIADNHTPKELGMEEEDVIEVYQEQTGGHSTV
UniProt P27105: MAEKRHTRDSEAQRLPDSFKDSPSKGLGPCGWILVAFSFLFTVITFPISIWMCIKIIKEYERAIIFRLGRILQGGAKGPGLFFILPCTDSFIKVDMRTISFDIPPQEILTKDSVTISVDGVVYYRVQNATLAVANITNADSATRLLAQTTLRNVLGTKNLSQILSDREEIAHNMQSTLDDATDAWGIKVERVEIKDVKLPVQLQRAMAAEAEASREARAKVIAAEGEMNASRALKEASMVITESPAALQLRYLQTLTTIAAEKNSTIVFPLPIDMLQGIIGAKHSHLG
UniProt P55854, whole entry, looked up: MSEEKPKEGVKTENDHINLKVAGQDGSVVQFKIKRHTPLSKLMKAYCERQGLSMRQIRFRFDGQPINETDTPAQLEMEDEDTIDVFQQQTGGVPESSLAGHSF
UniProt Q8NBJ7: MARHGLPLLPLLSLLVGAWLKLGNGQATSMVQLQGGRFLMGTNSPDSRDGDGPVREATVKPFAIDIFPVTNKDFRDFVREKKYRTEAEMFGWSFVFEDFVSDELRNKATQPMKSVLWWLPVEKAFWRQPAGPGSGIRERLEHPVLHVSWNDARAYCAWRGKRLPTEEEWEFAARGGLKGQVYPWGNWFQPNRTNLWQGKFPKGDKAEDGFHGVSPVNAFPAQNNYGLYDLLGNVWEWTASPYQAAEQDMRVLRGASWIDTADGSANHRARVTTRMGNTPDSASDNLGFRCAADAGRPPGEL
UniProt Q9P2R7: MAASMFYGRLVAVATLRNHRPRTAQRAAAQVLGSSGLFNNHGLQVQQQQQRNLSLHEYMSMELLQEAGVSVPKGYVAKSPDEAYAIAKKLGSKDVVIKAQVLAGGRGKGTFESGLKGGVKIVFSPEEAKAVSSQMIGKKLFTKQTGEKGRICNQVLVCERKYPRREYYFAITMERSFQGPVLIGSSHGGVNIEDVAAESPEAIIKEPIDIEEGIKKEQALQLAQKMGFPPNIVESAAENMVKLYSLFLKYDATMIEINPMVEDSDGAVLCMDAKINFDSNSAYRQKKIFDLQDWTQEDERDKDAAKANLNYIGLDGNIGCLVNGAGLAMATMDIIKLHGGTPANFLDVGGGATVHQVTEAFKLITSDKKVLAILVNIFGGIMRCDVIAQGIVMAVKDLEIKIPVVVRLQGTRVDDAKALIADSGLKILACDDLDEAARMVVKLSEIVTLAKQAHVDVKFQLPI
UniProt Q9NZ72: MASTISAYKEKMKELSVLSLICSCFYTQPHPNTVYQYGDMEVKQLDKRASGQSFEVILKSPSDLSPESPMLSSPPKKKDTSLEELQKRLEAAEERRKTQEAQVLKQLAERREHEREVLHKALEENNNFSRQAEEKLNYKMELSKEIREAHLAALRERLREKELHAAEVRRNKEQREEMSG
UniProt O60499: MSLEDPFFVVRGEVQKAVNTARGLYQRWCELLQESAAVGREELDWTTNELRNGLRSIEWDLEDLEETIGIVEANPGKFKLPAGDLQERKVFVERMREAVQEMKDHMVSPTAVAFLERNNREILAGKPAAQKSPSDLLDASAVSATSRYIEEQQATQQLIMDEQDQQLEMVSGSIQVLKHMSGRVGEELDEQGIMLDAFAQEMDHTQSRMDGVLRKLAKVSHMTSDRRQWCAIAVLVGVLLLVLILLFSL
UniProt Q15545, whole entry, looked up: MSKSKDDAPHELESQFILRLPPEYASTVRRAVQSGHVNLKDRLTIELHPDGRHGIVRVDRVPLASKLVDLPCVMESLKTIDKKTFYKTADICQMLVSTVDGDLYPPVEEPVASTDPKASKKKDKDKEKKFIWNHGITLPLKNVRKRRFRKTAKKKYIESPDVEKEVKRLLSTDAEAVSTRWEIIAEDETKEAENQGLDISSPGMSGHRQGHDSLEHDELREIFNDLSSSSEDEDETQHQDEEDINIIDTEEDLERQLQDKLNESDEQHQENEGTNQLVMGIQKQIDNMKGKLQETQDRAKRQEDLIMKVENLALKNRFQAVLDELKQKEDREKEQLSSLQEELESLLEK
UniProt Q86TM6, whole entry, looked up: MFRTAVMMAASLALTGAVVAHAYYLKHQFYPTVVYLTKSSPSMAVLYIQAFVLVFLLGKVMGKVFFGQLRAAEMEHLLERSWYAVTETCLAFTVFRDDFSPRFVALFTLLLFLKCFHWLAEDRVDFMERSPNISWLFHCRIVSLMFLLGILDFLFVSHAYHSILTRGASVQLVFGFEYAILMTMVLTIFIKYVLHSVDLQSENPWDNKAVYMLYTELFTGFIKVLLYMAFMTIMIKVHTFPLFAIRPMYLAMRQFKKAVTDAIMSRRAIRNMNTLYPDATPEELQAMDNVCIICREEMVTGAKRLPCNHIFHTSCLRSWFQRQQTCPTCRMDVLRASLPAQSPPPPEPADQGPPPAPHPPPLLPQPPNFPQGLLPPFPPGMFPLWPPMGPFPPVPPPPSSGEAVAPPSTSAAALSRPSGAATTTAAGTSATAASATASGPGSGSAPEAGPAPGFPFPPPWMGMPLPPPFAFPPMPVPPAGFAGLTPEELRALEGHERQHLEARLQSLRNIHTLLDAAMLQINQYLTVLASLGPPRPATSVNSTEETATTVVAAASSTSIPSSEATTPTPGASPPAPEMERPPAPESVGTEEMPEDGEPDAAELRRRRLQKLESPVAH
UniProt Q9NRP7: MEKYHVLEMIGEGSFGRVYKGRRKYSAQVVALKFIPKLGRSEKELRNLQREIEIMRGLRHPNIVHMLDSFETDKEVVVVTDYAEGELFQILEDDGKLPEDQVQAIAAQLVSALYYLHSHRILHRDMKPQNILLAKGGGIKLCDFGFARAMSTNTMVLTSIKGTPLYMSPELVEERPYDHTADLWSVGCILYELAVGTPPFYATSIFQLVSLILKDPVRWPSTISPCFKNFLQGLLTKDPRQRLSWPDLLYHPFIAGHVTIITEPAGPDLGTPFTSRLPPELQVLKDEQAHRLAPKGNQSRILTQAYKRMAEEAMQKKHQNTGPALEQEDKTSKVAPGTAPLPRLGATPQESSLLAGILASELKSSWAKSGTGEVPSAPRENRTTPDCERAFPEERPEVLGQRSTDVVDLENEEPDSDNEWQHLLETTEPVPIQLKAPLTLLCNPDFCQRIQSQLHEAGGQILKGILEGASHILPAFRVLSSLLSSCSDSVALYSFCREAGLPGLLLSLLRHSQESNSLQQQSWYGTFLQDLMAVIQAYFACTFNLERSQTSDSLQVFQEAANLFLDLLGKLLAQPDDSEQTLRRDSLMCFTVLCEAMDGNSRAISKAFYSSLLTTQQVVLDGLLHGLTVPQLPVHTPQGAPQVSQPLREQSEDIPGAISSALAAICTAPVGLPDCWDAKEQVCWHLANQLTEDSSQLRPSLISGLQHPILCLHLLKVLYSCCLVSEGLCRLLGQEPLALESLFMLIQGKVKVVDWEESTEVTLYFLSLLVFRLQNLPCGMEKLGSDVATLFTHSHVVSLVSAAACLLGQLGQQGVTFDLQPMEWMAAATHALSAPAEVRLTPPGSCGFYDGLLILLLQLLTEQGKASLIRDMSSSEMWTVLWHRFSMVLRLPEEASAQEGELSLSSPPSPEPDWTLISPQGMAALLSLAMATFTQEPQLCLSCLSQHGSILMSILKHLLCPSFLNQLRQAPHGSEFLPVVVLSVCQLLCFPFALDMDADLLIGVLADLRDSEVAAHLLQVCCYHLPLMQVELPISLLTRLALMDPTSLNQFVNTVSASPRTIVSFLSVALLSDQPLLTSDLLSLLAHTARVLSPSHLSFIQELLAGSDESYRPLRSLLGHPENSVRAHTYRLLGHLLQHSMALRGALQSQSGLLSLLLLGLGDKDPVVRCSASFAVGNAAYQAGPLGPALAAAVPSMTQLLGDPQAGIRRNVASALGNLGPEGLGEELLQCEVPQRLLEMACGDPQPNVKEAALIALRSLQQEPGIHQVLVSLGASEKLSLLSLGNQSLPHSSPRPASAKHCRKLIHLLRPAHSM
UniProt O60506: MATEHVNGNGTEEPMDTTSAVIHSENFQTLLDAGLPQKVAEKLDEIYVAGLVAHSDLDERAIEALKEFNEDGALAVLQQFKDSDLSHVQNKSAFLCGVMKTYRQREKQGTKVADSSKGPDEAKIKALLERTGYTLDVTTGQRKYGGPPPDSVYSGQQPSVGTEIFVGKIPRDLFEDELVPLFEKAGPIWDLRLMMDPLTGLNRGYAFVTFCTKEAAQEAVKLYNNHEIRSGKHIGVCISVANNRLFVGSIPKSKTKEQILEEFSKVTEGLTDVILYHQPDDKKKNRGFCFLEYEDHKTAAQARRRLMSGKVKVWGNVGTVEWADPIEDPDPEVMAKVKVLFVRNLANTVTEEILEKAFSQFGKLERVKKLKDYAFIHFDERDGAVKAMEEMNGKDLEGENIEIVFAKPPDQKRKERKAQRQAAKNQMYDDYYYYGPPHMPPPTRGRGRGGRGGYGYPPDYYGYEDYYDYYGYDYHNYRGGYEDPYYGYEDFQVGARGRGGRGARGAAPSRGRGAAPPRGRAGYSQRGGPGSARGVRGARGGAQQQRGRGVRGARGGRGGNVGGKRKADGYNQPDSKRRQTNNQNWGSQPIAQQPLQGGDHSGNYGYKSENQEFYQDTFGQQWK
UniProt O15400: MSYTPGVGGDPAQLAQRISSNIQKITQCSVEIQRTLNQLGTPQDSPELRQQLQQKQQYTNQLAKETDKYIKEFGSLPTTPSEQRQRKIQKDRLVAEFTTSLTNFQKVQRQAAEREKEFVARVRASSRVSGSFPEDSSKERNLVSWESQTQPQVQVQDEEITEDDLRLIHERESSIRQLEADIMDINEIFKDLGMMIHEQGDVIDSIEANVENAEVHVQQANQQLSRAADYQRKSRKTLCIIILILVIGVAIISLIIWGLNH
UniProt Q7RTN6: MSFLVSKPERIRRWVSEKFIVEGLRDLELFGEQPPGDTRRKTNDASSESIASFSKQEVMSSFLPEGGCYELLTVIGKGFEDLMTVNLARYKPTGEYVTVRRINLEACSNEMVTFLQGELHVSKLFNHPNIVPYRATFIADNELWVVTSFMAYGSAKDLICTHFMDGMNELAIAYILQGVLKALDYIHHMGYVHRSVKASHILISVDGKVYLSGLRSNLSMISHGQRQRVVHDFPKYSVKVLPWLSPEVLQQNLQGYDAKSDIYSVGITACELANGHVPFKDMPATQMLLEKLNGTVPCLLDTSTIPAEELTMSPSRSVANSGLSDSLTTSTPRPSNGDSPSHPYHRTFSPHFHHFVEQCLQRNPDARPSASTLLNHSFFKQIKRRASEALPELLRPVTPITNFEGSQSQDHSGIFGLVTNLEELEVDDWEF
UniProt Q8IWZ8: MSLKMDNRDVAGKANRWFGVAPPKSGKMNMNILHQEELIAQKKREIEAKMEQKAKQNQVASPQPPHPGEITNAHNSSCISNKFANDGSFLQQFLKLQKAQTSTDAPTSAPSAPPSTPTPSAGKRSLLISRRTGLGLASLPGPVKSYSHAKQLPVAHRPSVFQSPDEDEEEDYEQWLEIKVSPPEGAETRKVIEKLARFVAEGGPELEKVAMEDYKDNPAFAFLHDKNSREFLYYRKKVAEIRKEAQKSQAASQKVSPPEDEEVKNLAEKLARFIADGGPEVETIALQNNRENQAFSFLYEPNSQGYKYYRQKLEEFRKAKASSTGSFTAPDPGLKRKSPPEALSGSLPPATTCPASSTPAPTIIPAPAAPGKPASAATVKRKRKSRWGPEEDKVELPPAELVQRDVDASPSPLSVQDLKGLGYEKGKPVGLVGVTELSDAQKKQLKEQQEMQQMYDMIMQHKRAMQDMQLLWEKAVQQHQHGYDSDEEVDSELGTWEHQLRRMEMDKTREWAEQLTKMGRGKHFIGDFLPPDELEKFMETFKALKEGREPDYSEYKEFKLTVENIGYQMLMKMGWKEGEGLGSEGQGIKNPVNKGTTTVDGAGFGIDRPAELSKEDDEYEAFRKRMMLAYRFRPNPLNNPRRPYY
UniProt Q13043: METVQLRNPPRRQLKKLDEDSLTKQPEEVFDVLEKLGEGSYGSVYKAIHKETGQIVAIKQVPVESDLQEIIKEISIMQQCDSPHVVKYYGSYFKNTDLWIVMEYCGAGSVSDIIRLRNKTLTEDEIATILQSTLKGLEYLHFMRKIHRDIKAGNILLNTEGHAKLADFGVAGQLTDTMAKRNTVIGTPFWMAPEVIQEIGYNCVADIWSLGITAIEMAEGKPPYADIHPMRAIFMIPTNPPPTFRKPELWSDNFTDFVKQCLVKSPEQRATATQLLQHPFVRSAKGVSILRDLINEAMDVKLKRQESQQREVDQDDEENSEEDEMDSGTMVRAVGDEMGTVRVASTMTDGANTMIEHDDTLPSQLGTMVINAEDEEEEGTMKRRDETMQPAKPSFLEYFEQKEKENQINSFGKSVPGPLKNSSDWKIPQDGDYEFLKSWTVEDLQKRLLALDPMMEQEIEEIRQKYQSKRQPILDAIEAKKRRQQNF

Columns and labels:
Experiment in all cases: log2 fold change, soluble protein after heating vs DMSO (PISA); higher = thermal stabilisation; K562 cells, 10 uM, 30 min; active = over 0.2 and 3.5 SD of the protein, either way, in both replicates (recomputed)
erlotinib = compound: C#Cc1cccc(Nc2ncnc3cc(OCCOC)c(OCCOC)cc23)c1 [erlotinib]
Outline: (§1)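 For each measurement, 10 μM compound was applied for 30 min to K562 cells at 2×10^6 cells/mL. Aliquots were heated for 3 min across 48°C-58°C, pooled, and extracted in PBS with 0.5% NP-40 at 4°C; the supernatant after 21,000xg for 90 min was soluble protein. This was quantified by TMTpro 16plex LC-MS/MS with channel sums equalised, and thermal stability was reported relative to control samples from duplicates, on a log2 fold-change scale.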

[1] = compound: C/C(=N\NC(=O)C1=CC(=CC=C1)S(=O)(=O)N2CCOCC2)/C3=C(C=CC(=C3)Cl)O
Outline: as §1

[2] = compound: C1=CC(=C(C=C1Cl)C2=NC3=NC=CN=C3C(=N2)NC4=CC=NC=C4)F
Outline: as §1

[3] = compound: C1=CC(=CC=C1C2=NC3=C(N2)C=C(C=C3)C(=O)N)OC4=CC=C(C=C4)Cl
Outline: as §1

[4] = compound: C1=CC2=C(C=CC(=C2)/C=C\3/C(=O)NC(=NCC4=CC=CS4)S3)N=C1
Outline: as §1

[5] = compound: C1=CC2=NC=CN=C2C=C1/C=C/3\C(=O)NC(=O)S3
Outline: as §1

[6] = compound: C1=CC=C(C=C1)C2=NC(=C(N2)C3=CC=NC=C3)C4=CC(=C(C=C4)Cl)O
Outline: as §1

[7] = compound: C1=CC=C2C(=C1)C3=NNC4=CC=CC(=C43)C2=O
Outline: as §1

[8] = compound: C1CCN(C1)C(=O)NC2=CC=CC(=C2)NC3=NC=C(C(=N3)NCCC4=CN=CN4)Br
Outline: as §1

[9] = compound: C1CN(CCC1(CC2=CC=C(C=C2)Cl)N)C3=NC=NC4=C3C=CN4
Outline: as §1

Measured: log2 fold change

SUMO1 (UniProt P63165)
inactive: erlotinib -0.126 | [1] 0.167 | [2] 0.006 | [3] -0.06 | [4] 0.182 | [5] 0.043 | [6] 0.045 | [7] -0.06 | [8] 0.211 | [9] 0.033

STOM (UniProt P27105)
inactive: erlotinib -0.027 | [1] -0.087 | [2] -0.011 | [3] 0.1 | [4] 0.054 | [5] 0.04 | [6] -0.188 | [7] -0.038 | [8] 0.004 | [9] -0.079

SUMO3 isoform 2 (UniProt P55854)
inactive: erlotinib -0.026 | [1] -0.092 | [2] 0.043 | [3] 0.038 | [4] -0.095 | [5] 0.037 | [6] -0.104 | [7] -0.134 | [8] 0.091 | [9] 0.063

SUMF2 (UniProt Q8NBJ7)
inactive: erlotinib 0.005 | [1] -0.026 | [2] -0.068 | [3] -0.014 | [4] -0.028 | [5] 0.012 | [6] -0.033 | [7] 0.038 | [8] 0.031 | [9] -0.005

SYF2 (UniProt O95926)
inactive: erlotinib -0.042 | [1] -0.054 | [2] -0.052 | [3] 0.05 | [4] -0.054 | [5] 0.069 | [6] 0.023 | [7] -0.097 | [8] -0.024 | [9] 0.122

SUCLA2 (UniProt Q9P2R7)
inactive: erlotinib 0.024 | [1] 0.016 | [2] 0.072 | [3] -0.031 | [4] 0.049 | [5] -0.018 | [6] 0.037 | [7] -0.019 | [8] 0.004 | [9] -0.01

2 consecutive entries already listed:
SUMO3 isoform 2 (UniProt P55854)
inactive: erlotinib -0.026 | [1] -0.092 | [2] 0.043 | [3] 0.038 | [4] -0.095 | [5] 0.037 | [6] -0.104 | [7] -0.134 | [8] 0.091 | [9] 0.063

SUMF2 (UniProt Q8NBJ7)
inactive: erlotinib 0.005 | [1] -0.026 | [2] -0.068 | [3] -0.014 | [4] -0.028 | [5] 0.012 | [6] -0.033 | [7] 0.038 | [8] 0.031 | [9] -0.005

Later entries

STMN3 (UniProt Q9NZ72)
inactive: erlotinib -0.014 | [1] 0.016 | [2] -0.066 | [3] 0 | [4] 0.002 | [5] 0.043 | [6] 0.182 | [7] -0.04 | [8] -0.02 | [9] 0.007

STX10 (UniProt O60499)
inactive: erlotinib 0.149 | [1] -0.073 | [2] -0.052 | [3] -0.014 | [4] 0.049 | [5] 0.34 | [6] -0.07 | [7] 0.047 | [8] 0.041 | [9] 0.041

TAF7 (UniProt Q15545)
inactive: erlotinib -0.024 | [1] -0.01 | [2] -0.044 | [3] 0.006 | [4] 0.041 | [5] 0.003 | [6] -0.072 | [7] -0.011 | [8] -0.008 | [9] 0.021

STK39 (UniProt Q9UEW8)
inactive: erlotinib 0.064 | [1] 0.07 | [2] 0.038 | [3] -0.096 | [4] 0.035 | [5] 0.06 | [6] 0.034 | [7] 0.019 | [8] 0.014 | [9] -0.025

SYVN1 (UniProt Q86TM6)
inactive: erlotinib 0.04 | [1] 0.035 | [2] -0.024 | [3] 0.034 | [4] 0.077 | [5] 0.078 | [6] 0.053 | [7] -0.022 | [8] 0.005 | [9] 0.031

STK36 (UniProt Q9NRP7)
inactive: erlotinib 0.1 | [1] -0.096 | [3] 0.063 | [4] -0.002 | [5] -0.02 | [6] 0.231 | [7] 0

SYNCRIP isoform 3 (UniProt O60506)
inactive: erlotinib -0.066 | [1] -0.167 | [2] -0.231 | [3] 0.035 | [4] -0.006 | [5] -0.019 | [6] -0.046 | [7] -0.004 | [8] 0.107 | [9] 0.02

TACC2 (UniProt O95359)
inactive: erlotinib -0.219 | [1] 0.008 | [3] 0.06 | [4] 0.005 | [5] 0.075 | [6] -0.128 | [7] 0.014 | [8] 0.014 | [9] -0.026

STX7 (UniProt O15400)
inactive: erlotinib 0.02 | [1] -0.029 | [2] 0.02 | [3] 0.021 | [4] -0.02 | [5] 0.02 | [6] -0.009 | [7] -0.007 | [8] 0 | [9] 0.056

STRADA (UniProt Q7RTN6)
inactive: erlotinib -0.015 | [1] -0.039 | [2] -0.013 | [3] 0.036 | [4] 0.007 | [5] 0.037 | [6] 0.022 | [7] -0.05 | [8] 0.026 | [9] 0.036

SUGP1 (UniProt Q8IWZ8)
inactive: erlotinib 0.039 | [1] 0.093 | [2] -0.027 | [3] -0.029 | [4] -0.01 | [5] 0.005 | [6] 0 | [7] -0.012 | [8] -0.03 | [9] -0.001

STK4 (UniProt Q13043)
active: [7] -0.208
inactive: erlotinib -0.017 | [1] 0 | [2] -0.02 | [3] 0.003 | [4] 0.04 | [5] -0.02 | [6] -0.009 | [8] -0.025 | [9] 0.025
